According to the supplement of paper PMC12067093, “Discovery and optimisation of a covalent ligand for TRIM25 and its application to targeted protein ubiquitination” (Chemical Science, 2025):
The list shows a part of the results.

Sequences of proteins named here, by UniProt entry; tags and fusion partners are left off. A change or cut given only in a name is not applied to a line headed by its entry.
UniProt Q9Y3T6: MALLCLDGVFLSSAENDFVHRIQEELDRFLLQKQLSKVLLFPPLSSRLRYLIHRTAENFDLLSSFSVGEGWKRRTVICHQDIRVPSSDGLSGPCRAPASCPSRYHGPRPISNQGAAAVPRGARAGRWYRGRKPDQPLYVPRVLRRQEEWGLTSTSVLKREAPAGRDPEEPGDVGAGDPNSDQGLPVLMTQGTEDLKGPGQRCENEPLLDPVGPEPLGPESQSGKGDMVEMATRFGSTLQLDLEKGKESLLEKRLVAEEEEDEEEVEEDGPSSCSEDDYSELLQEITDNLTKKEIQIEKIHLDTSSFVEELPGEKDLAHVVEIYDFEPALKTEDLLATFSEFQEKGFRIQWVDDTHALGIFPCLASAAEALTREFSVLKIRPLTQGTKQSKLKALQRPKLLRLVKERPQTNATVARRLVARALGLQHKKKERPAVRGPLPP
UniProt Q92878: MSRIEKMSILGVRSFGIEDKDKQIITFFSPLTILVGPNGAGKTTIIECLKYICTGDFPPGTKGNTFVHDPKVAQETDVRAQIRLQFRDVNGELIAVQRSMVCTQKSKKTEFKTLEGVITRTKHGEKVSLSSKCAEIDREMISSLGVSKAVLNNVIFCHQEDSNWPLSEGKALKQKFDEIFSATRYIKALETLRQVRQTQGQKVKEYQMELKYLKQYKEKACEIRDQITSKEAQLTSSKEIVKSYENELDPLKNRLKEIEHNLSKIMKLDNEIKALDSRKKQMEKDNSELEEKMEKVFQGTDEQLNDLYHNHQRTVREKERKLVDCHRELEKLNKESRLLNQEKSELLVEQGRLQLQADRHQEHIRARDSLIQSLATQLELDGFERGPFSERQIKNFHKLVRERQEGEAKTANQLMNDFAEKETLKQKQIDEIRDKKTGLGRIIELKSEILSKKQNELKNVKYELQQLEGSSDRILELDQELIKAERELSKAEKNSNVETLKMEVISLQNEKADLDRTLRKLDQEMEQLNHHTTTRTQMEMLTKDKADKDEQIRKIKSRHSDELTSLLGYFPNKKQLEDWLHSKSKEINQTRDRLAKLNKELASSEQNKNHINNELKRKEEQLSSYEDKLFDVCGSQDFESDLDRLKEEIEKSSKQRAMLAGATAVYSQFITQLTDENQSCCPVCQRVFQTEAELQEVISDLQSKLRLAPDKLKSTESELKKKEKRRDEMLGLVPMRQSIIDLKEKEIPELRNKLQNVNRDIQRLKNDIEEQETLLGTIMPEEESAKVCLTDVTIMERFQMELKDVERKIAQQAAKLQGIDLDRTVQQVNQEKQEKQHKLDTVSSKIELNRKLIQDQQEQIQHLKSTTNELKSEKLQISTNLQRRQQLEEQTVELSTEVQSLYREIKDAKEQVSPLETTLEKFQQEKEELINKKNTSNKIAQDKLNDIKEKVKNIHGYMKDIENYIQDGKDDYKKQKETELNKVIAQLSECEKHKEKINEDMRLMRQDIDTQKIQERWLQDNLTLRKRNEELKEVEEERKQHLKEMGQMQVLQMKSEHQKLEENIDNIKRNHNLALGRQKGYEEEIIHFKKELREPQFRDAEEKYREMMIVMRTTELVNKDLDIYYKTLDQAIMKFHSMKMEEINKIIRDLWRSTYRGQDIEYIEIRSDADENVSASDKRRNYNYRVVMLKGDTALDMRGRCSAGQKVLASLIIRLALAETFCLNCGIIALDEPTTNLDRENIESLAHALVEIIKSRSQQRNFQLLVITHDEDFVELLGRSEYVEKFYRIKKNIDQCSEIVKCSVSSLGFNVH
UniProt Q9H2M9: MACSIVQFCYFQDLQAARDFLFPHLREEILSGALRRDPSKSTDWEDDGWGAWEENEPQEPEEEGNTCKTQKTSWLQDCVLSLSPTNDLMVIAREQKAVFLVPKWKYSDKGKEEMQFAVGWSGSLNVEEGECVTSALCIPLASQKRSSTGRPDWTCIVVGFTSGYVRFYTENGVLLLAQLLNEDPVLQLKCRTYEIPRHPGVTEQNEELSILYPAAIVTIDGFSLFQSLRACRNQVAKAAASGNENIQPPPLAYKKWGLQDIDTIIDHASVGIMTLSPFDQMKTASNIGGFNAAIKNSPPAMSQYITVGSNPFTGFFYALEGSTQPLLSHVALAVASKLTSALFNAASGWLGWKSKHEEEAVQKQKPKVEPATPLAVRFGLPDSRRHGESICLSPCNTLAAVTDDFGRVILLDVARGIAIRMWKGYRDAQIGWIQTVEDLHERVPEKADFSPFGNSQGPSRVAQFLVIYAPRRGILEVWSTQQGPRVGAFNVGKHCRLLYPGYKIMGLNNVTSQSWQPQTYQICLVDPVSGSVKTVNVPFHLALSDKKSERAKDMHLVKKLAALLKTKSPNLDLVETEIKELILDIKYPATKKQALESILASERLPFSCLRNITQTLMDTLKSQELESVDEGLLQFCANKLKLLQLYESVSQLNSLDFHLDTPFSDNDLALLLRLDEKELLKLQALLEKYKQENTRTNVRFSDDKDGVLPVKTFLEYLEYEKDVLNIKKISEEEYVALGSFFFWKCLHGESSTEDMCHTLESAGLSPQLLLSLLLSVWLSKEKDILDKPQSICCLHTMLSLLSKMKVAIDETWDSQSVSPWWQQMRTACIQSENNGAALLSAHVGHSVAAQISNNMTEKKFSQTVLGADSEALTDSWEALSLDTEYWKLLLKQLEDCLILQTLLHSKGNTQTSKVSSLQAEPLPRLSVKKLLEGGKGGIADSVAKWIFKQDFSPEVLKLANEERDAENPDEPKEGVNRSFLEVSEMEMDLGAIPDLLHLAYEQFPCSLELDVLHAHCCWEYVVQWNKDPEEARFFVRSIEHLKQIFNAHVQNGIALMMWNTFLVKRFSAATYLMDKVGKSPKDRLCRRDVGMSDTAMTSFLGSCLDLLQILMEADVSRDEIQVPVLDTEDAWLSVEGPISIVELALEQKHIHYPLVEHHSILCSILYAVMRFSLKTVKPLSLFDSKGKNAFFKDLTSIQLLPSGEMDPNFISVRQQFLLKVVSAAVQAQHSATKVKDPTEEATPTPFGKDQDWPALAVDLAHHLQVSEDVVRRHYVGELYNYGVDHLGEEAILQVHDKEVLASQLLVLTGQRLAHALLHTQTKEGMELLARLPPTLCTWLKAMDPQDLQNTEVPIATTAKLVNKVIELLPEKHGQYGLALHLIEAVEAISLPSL
UniProt Q7Z7A4: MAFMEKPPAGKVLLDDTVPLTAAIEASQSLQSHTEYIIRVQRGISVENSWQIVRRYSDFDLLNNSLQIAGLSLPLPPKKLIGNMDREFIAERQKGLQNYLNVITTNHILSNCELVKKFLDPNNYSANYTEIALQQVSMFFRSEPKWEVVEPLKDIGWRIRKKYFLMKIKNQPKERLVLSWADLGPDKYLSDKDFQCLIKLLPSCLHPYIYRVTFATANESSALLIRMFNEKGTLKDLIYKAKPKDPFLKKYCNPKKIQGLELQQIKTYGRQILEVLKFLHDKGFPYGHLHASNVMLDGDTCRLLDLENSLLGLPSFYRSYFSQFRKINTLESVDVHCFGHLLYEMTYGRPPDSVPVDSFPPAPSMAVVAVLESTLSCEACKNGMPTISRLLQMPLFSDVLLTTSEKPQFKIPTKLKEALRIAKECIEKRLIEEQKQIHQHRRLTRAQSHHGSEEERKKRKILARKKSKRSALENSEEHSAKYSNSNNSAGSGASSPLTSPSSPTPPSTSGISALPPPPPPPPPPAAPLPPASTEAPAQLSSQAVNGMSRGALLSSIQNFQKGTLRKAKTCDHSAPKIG
UniProt P11216: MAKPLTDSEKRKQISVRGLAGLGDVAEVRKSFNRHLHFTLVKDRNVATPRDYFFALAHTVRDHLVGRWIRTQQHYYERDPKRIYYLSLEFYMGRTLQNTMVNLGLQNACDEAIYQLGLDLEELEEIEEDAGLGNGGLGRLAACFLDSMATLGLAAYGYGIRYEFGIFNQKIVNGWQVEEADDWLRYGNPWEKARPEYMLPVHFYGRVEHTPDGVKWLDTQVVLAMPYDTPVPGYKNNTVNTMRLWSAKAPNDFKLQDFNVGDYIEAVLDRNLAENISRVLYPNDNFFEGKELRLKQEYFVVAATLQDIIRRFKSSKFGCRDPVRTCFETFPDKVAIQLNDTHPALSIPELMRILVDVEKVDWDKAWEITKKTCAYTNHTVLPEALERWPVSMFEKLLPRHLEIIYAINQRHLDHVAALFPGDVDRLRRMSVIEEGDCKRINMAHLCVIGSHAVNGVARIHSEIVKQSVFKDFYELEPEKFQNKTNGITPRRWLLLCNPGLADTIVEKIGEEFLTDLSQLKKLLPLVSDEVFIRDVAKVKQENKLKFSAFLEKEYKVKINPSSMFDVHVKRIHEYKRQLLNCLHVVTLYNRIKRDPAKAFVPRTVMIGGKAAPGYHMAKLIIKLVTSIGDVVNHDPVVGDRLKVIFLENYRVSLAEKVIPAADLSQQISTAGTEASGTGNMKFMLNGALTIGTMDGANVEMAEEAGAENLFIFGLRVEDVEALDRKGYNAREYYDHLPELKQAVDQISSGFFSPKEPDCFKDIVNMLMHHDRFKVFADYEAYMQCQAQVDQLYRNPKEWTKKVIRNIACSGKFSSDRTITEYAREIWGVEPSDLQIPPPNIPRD
UniProt Q92696: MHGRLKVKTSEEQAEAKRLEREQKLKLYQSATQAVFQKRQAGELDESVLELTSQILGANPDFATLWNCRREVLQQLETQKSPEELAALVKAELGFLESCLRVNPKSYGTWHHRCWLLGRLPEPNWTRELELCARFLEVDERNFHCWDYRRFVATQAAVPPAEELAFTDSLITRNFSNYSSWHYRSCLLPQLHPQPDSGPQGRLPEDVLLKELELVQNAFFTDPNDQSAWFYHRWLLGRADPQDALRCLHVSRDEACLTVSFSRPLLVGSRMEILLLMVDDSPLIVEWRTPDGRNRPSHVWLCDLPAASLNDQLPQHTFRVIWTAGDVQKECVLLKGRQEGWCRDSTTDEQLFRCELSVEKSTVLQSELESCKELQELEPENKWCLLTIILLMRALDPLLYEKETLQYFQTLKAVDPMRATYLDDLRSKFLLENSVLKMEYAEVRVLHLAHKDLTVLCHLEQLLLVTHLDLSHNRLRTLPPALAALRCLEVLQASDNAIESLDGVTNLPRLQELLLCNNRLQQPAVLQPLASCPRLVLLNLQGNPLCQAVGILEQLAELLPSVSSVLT
UniProt P47897: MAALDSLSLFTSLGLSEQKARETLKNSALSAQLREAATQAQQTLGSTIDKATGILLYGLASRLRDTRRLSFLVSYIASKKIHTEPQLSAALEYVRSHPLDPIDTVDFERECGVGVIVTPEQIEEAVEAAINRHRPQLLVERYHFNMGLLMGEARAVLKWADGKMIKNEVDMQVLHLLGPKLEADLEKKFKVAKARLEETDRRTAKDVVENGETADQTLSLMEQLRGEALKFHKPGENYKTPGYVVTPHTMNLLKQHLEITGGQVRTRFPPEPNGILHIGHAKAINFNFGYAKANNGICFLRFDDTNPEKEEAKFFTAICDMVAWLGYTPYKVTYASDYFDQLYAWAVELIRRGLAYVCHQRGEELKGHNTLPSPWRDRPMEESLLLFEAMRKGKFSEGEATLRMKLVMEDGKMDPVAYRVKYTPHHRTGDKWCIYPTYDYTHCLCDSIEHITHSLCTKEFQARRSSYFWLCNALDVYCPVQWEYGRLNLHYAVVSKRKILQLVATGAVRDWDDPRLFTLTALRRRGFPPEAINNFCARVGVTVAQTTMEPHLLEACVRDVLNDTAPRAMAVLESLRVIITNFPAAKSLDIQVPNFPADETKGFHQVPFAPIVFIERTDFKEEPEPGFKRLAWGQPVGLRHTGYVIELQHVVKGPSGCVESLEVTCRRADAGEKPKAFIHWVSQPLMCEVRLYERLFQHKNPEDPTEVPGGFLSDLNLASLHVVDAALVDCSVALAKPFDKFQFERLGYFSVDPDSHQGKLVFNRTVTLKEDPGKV
UniProt P49023, whole entry, looked up: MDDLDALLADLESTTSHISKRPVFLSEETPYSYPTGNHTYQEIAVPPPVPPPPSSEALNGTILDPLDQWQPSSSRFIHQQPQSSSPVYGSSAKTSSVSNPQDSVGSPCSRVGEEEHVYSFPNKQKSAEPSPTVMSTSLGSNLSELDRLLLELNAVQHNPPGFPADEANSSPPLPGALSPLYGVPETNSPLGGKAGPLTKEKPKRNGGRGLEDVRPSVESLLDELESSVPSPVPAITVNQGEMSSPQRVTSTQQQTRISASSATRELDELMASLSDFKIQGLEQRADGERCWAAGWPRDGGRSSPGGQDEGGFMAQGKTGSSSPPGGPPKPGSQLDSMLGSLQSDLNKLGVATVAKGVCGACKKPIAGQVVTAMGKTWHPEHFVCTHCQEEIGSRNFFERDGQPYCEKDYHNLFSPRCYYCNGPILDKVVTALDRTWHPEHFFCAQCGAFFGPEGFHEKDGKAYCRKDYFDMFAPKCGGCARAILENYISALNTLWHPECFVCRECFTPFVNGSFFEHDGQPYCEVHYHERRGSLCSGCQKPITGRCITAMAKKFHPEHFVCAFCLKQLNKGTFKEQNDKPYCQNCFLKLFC

Compound: Cc1cc(ccc1-c1ccccc1)C(=O)N1CCCN(CC1)C(=O)CCl [compound 10]
Test: probe-labelled cysteine peptide fold change vs DMSO (competition) (log2 fold change); higher = less target engagement (more negative = stronger competition)
Settings: THP-1, incubation time: 4 h
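Note: competitive profiling in live THP-1 cells: cysteine peptides tagged with an iodoacetamide desthiobiotin (IA-DTB) probe, intensity after compound treatment relative to DMSO-treated cells.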

Target | probe-labelled cysteine peptide fold change (10 µM) | probe-labelled cysteine peptide fold change (50 µM)
RAB4A_P20338_28_SCLLHQFIEK (UniProt P20338) | -0.145 | -0.0658
R3HCC1_Q9Y3T6_78_TVICHQDIR (UniProt Q9Y3T6+R3HCC1) | -0.0761 | -0.152
QSER1_Q2KHR3_1709_KNEDLGQEEIVQLCMK (UniProt Q2KHR3) | 0.0157 | 0.0248
RAD50_Q92878_1296_NIDQCSEIVK (UniProt Q92878) | -0.0684 | 0.076
PUS7_Q96PZ0_258_GSYCHFVLYK (UniProt Q96PZ0) | -0.0223 | -0.0633
QSOX1_O00391_449_GYVHYFFGCR (UniProt O00391) | 0.109 | 0.232
PYCR3_Q53H96_129_VLPNLPCVVQEGAIVMAR (UniProt Q53H96) | 0.217 | 0.181
UniProt Q6ZSR9_Q6ZSR9_251_GSCLESGGHSNDR | -0.161 | -0.623
RAB9B_Q9NP90_182_QVLAVEEQLEHCMLGHTIDLNSGSK (UniProt Q9NP90) | -0.143 | -0.546
RAE1_P78406_143_APNYSCVMTGSWDK (UniProt P78406) | 0.282 | 0.0431
RAD51B_O15315_185_ELTCDEVLQR (UniProt O15315) | 0.00647 | -0.0561
RAB3GAP2_Q9H2M9_395_HGESICLSPCNTLAAVTDDFGR (UniProt Q9H2M9) | -0.00633 | 0.0791
PXK_Q7Z7A4_204_LLPSCLHPYIYR (UniProt Q7Z7A4) | -0.001 | 0.213
PYGB_P11216_437_MSVIEEGDCKR (UniProt P11216) | -0.0823 | -0.244
RAB7B_Q96AH8_142_VPQEVAQGWCR (UniProt Q96AH8) | -0.0255 | 0.0526
RABGGTA_Q92696_186_SCLLPQLHPQPDSGPQGR (UniProt Q92696) | 0.0591 | 0.036
RACK1_P63244_168_FSPNSSNPIIVSCGWDK (UniProt P63244) | 0.00306 | 0.0164
RABGGTA_Q92696_487_CLEVLQASDNAIESLDGVTNLPR (UniProt Q92696) | -0.111 | -0.0347
QARS_P47897_657_GPSGCVESLEVTCR (UniProt P47897) | 0.198 | 0.101
RAB33A_Q14088_197_ESQNVESIFMCLACR (UniProt Q14088) | 0.0156 | -0.365

Target | probe-labelled cysteine peptide fold change (10 µM) | probe-labelled cysteine peptide fold change (50 µM)
PWP2_Q15269_508_LLDVLSGHEGPISGLCFNPMK (UniProt Q15269) | 0.15 | -0.0271
PYGB_P11216_326_TCFETFPDK (UniProt P11216) | -0.387 | -0.694
RAB43_Q86YS6_157_EVSLAEAQSLAEHYDILCAIETSAK (UniProt Q86YS6) | 0.0749 | 0.197
QRICH1_Q2TAL8_713_CPQSVK (UniProt Q2TAL8) | -0.152 | -0.258
RAB21_Q9UL25_29_VVLLGEGCVGK (UniProt Q9UL25) | 0.0214 | 0.285
RAD50_Q92878_48_TTIIECLK (UniProt Q92878) | 0.0101 | -0.0339
RAB3GAP1_Q15042_678_MQSACLLSDMESFK (UniProt Q15042) | 0.194 | 0.145
RAB3D_O95716_137_TYSWDNAQVILVGNKCDLEDER (UniProt O95716) | -0.156 | -0.412
QARS_P47897_687_AFIHWVSQPLMCEVR (UniProt P47897) | 0.143 | -0.0311
PYCARD_Q9ULZ3_173_LFSFTPAWNWTCK (UniProt Q9ULZ3) | -0.238 | -0.449
PXN_P49023_108_TSSVSNPQDSVGSPCSR (UniProt P49023) | -0.282 | -0.571
PXN_P49023_505_ECFTPFVNGSFFEHDGQPYCEVHYHER (UniProt P49023) | 0.192 | 0.386
QSOX1_O00391_101+110_AWRPALYLAALDCAEETNSAVCR (UniProt O00391) | 0.0391 | -0.115
RAD54L2_Q9Y4B4_1143_MAASGSQGPSCESTSNGR (UniProt Q9Y4B4) | -0.204 | -0.485
R3HCC1_Q9Y3T6_5_ALLCLDGVFLSSAENDFVHR (UniProt Q9Y3T6+R3HCC1) | 0.242 | 0.0812
RAE1_P78406_217_CVAIFK (UniProt P78406) | 0.0398 | -0.0467
RAC3_P60763_105_HHCPHTPILLVGTK (UniProt P60763) | 0.0151 | -0.219
PYURF_Q96I23_60_KTEEPPRDFDPALLEFLVCPLSK (UniProt Q96I23) | 0.0128 | -0.357
RAB39A_Q14964_23_SCLLHR (UniProt Q14964) | 0.142 | 0.239

A different layout for some results above.
RAD51B_O15315_185_ELTCDEVLQR (UniProt O15315)
  probe-labelled cysteine peptide fold change (10 µM): 0.00647
  probe-labelled cysteine peptide fold change (50 µM): -0.0561
RAB3GAP2_Q9H2M9_395_HGESICLSPCNTLAAVTDDFGR (UniProt Q9H2M9)
  probe-labelled cysteine peptide fold change (10 µM): -0.00633
  probe-labelled cysteine peptide fold change (50 µM): 0.0791
PXK_Q7Z7A4_204_LLPSCLHPYIYR (UniProt Q7Z7A4)
  probe-labelled cysteine peptide fold change (10 µM): -0.001
  probe-labelled cysteine peptide fold change (50 µM): 0.213
